Our source for the z-score values is PubChem BioAssay AID1347423 (Functional Genomics Laboratory (NCATS/FGL), 2020).

In all, about 52,000 sequences went through this assay and about 210 (0.4%) were called active.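 The calls were made as follows: active = gene whose silencing raises cell survival under the drug, median off-target-corrected z-score across its silencing RNAs 2 or more; inactive = the rest.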 The list shows a part of the results.

The assay can be described thus: Resistance to Poly (ADP-Ribose) Polymerase inhibitor: Gene Identification via Genome-wide siRNA Screen. The note with it: mouse BRCA2 R2336H ES cells, olaparib, CellTiter-Glo viability; active compounds read high. Put shortly:
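Mouse BRCA2 R2336H ES cells were reverse-transfected with siRNA (20 nM final), treated at 48 h with 500 nM olaparib, and read by CellTiter-Glo after 72 h. Scores: MAD-based z per siRNA, median per gene, seed off-target correction.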
On to GGUACAAACACGAUCAAGGTT against Aox4, for which the z-score is inactive: 0.262. To GGAGGAUGAAACAAGCCUUTT against Tnfsf11 belongs inactive: 2.71; to GCCCUCUACAACUUUGACCTT against Sh3rf2, inactive: 0.175. To “GGAGGGAGUGAAAACUUUCTT against 1110054N06Rik” belongs inactive: -1.28. To GCUUUUCGUUCUUAUACAUTT against Hlxb9 belongs inactive: 0.903. In the case of GGCGCAUGCAGAGUAUCAATT against Tcfap4, the z-score is inactive: 0.783. For the sequence GGGAAAAGCUAAAAUACAATT against Gtf2h1, the z-score is inactive: 0.413.

On to GGUGCUGAGCAAUCUCAAGTT against Slc35a4, for which the z-score was inactive: 0.0917. To GGAGUUUUUGCAUGAAUUGTT against Folh1 belongs inactive: 1.05; to “GGACAAGGAACAGAGCCUUTT against 5830442J12Rik”, inactive: -1.21; to “GGAGUCACACCUGAAUUGCTT against 2610507L03Rik”, inactive: -0.978. To CCAAAGCUGAGGUUGUAACTT against Sstr4 belongs inactive: -0.604; to “GGGAUUCUGAGCUUUCUGGTT against 2310021H06Rik”, inactive: 2.08. Regarding CGUCAUGACAAACUUAGGATT against Calm1, the z-score was inactive: -0.263. To CGGGAUACUUUAAAGAACATT against Shfdg1 belongs inactive: -1.64. To GGACUAUCUCUUUAUGGAATT against Csf1 belongs inactive: -0.589. To “GGCAGUCUUGUCCCUUGUATT against 2900073G15Rik” belongs inactive: -1.96; to GGAUUGUCAUAACAGAAUUTT against Rpe65, inactive: 1.03. As to CGCAUGCUGGUAAAACGGATT against BC037594, the z-score was inactive: 0.135. To GGAGUCAAGCUAGAAGUUUTT against Crry belongs inactive: 0.323.

Regarding GGCCGUUUCCUACCUCAUGTT against Cckbr, the z-score is inactive: 2.16. To “GGAAGUCUCAUCGUAAUUCTT against D030060M11Rik” belongs inactive: -2.13. To GGGAAACAAAUGGGUUGGCTT against Bclp2 belongs inactive: -1.74. GCGGUCCAGACAGCAAAUATT against Ptbp2: the z-score was inactive: -0.535. To GGACUCUCAGGUAAAUGCATT against Gbl belongs inactive: -1.35; to “GCAACCAAAUCUAUUGUUCTT against 4930511O11Rik”, inactive: 0.534; to GGCUGUCAGAACCAACUACTT against Tshb, inactive: 0.507. To GGCAAAUGUAGACAUGUAUTT against Defb49 belongs inactive: -1.47. To “GGUCCAGAAUGUGUCCCAGTT against A030009A06Rik” belongs inactive: -0.144; to “GGAAGCAUACGAUCCUAUCTT against 4933402B14Rik”, inactive: 1.79; to “GCUUUACCUGGAGAAAAUGTT against 4931422A03Rik”, inactive: -1.74. As for “GGGAAGAAGCUUUGUGAUUTT against 2310004I24Rik”, the z-score is inactive: 0.805. To GCCUGAAUUUAGUGUUAAGTT against Hnmt belongs inactive: 0.495; to GGCGACUUUUGCAUCGCUUTT against Spink2, inactive: -0.152; to GGCCACAUGAGGAAUGACGTT against Slc20a2, inactive: 0.255.

As for GGGAUCGAUCAAUCAUAACTT against Tcfap2c, the z-score was inactive: 1.8. To “GGCUCCACAAACCUUCCUUTT against D830014E11Rik” belongs inactive: -1.7. As for CGAUGCAACAUGACCAAGUTT against MGC118309, the z-score is inactive: 1.11. To GCUGUAUUCGCUGUGCCGUTT against Siat7b belongs inactive: 0.098. To GGAGUUCAUUCUGGAUAUCTT against Matn2 belongs inactive: 2.18. To GGAGUAUAUCCAAAGAAUUTT against Hook2 belongs inactive: 0.397. For the sequence GGGUAUCCUUUGGUGGUGUTT against Prss32, the z-score was inactive: -0.545. For CCUACACCUAGAAAUCUAGTT against Gpr3, the z-score was inactive: 0.604. For the sequence GGUCCCUGUAGAAAAACUGTT against Asrgl1, the z-score was inactive: -0.388.

For the sequence GGCUGUGGUGAACCUAGACTT against Fcrl3, the z-score was inactive: -0.354. To CGCAGAGAGUAGAAAAUUGTT against Pdir belongs inactive: -0.218; to GGAUCGACUGCCAAGGAAUTT against Klhdc2, inactive: 0.737. To CCAGUGGUUGCUAUGGUCUTT against Nme1 belongs inactive: 1.91; to GGAUCAGAUGUCAGCUUCATT against Stx6, inactive: 1.39. In the case of GGAUUCUGGAGAAUAUGAATT against Tgm5, the z-score was inactive: 0.17.

On to CCUAUGAUGUAAUGACCCGTT against Slc25a29, for which the z-score was inactive: -0.488. To GGAUUGGAAGAAAAAGGAGTT against Lair1 belongs inactive: -1.19. To GGCCUUGAGACUAUCAAUGTT against Emilin3 belongs inactive: 0.405; to GCAGAAGUGCUAUUCUUGUTT against Cnbp1, inactive: 1.46; to CGCCAGGUCAAGGAAUGGUTT against Sh2d1c, inactive: 0.639. To CCAGCAAGAGUGUGUGUAATT against MGC67174 belongs inactive: -1.05; to GGCAGAAAAGAUAGCAUCUTT against Cops4, inactive: -3.04. For GGACUUGAAGCUGCACCUATT against Atp6v0d1, the z-score is inactive: 1.82. To “GCCGGUUGGAACAAAAGGCTT against E130018O15Rik” belongs inactive: 0.373; to GGAAACUGUGGAUGAAAAGTT against Olfr1230, inactive: 0.256. On to GGUGAAAGACACUUGAAUUTT against Cdk2, for which the z-score was inactive: 1.11.

On to GGUCCGAGAGACAUUGGCATT against Lmx1b, for which the z-score is inactive: 1.88. To GGAGAGGAUCCAAUGUCUCTT against Ptpn5 belongs inactive: 1.21; to GGCUAUACACGCAUCAAGCTT against Dtx1, inactive: 1.91; to GCGACAAGACUUCUUGAGCTT against Epha8, inactive: -0.918.

As for CCCUAUACUCAUUUGUAAGTT against Ube2a, the z-score was inactive: -0.119. To GCACAAAUAAAGAUAAGAGTT against Uox belongs inactive: 0.494.
